Measurements published in the supplement of paper PMC12889115.
This is one part of the list. These are raw signals, not scaled to a control.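 In the initial screen, polymyxin B was used at a concentration that permeabilizes Salmonella's outer membrane but not its inner membrane. Maximum growth was set by DMSO wells with or without polymyxin B. Since plates varied, data were ranked per plate, and compounds giving the lowest OD600 advanced as hits.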

Tested on: Salmonella enterica serovar Typhimurium SL1344
Assay: bacterial growth OD600 after 18 h with compound and polymyxin B; higher = more bacterial growth (less inhibition)
Conditions: 50 µM, Mueller-Hinton broth

O=C(NCc1ccc(Cl)cc1)C1CCCN(C2CCN(C(=O)C3CC3)CC2)C1 (stereo unspecified)
bacterial growth OD600 (polymyxin B 0.75 µg/mL): 0.924

O=C(CC(c1ccccc1)c1ccc(Cl)cc1)NCCN1CCCCC1=O (stereo unspecified)
bacterial growth OD600 (polymyxin B 1 µg/mL): 0.791

CCCCNC(=O)c1cn(C(C)C)cc(C(=O)NC2CCN(Cc3ccccc3)C2)c1=O (stereo unspecified)
bacterial growth OD600 (polymyxin B 0.75 µg/mL): 0.854

COc1cccc(OCc2nc(C(=O)N3CCC(C)CC3)co2)c1
bacterial growth OD600 (polymyxin B 1 µg/mL): 0.971

Cc1cccc(NC(=O)CCC2CCN(S(=O)(=O)c3ccc(C)s3)CC2)c1
bacterial growth OD600 (polymyxin B 1 µg/mL): 0.673

COC(C(=O)Nc1ccnn1C1CCN(C(=O)c2cccs2)CC1)c1ccccc1 (stereo unspecified)
bacterial growth OD600 (polymyxin B 1 µg/mL): 0.852

CCOC(=O)N1CCN(C(=O)C2CCC(=O)N(Cc3ccc(Cl)cc3)C2)CC1 (stereo unspecified)
bacterial growth OD600 (polymyxin B 1 µg/mL): 1.08

O=C1NCCN(Cc2ccccc2F)C1CC(=O)N(Cc1ccccc1)CC1CC1 (stereo unspecified)
bacterial growth OD600 (polymyxin B 1 µg/mL): 0.01

CC#CCN1C(=O)NC(CCc2ccccc2)(C2CCN(Cc3ccc(F)cc3F)CC2)C1=O (stereo unspecified)
bacterial growth OD600 (polymyxin B 0.75 µg/mL): 0.483

OC[C@@H]1CCCN1c1ccc(-c2nc(COc3ccccc3)no2)cn1
bacterial growth OD600 (polymyxin B 1 µg/mL): 0.474

O=C(NCc1cccnc1)c1ccc(N2CCC(NCc3cccc(C(F)(F)F)c3)CC2)cc1
bacterial growth OD600 (polymyxin B 0.75 µg/mL): 0.795

COCCN1CC(C(=O)NCCc2nc(C)cc(C(F)(F)F)n2)CCC1=O (stereo unspecified)
bacterial growth OD600 (polymyxin B 1 µg/mL): 0.838

O=C(NCC1CCCN(Cc2ccccc2)C1)c1cccs1 (stereo unspecified)
bacterial growth OD600 (polymyxin B 1 µg/mL): 0.886

O=C(c1cccc(Cn2cccn2)c1)N1CCCC(Nc2ccc(F)cc2)C1 (stereo unspecified)
bacterial growth OD600 (polymyxin B 1 µg/mL): 1.03

Cc1ccc(CN2CCN(Cc3ccc(F)cc3)CC2CCO)cc1 (stereo unspecified)
bacterial growth OD600 (polymyxin B 1 µg/mL): 0.755

CN(CC1CCCN(CCc2ccc(Cl)cc2)C1)C(=O)c1cc(C2CC2)on1 (stereo unspecified)
bacterial growth OD600 (polymyxin B 1 µg/mL): 0.857

COc1cccc(CCC2CCCN(C(=O)CCSC)C2)c1 (stereo unspecified)
bacterial growth OD600 (polymyxin B 0.75 µg/mL): 0.008

COc1cccc(NC(=O)CCC2CCN(C(=O)C3=C(C)OCCO3)CC2)c1
bacterial growth OD600 (polymyxin B 1 µg/mL): 1.23

Cc1ccc(Oc2ncccc2CNCc2cccn2-c2ncccn2)cn1
bacterial growth OD600 (polymyxin B 1 µg/mL): 1.12

O=C(CCc1cccnc1)NCc1cccnc1Oc1ccc(F)cc1F
bacterial growth OD600 (polymyxin B 1 µg/mL): 0.993

O=C(NCc1nc(NCCCc2ccccc2)c2ccccc2n1)c1cnc2ccccn2c1=O
bacterial growth OD600 (polymyxin B 0.75 µg/mL): 0.811
